# Source: US20260250410A1, “ANTIBODY AND USE THEREOF” (SICHUAN HUIYU PHARMACEUTICAL CO., LTD., priority 2022, published 2026)
# Some entries share one result that the patent states for a list of compounds.
# System: MDA-MB-231 cells
# Assay: Flow cytometry binding of single B cell antibodies to tumor cells (Geo-MFI)
# Type: cell-based, human
# Settings: antibody 1.5 μg/ml
substance,measurement,value
"SB9: anti-CDCP1 antibody by single B cell technique; VH SEQ ID NO: 279, VL SEQ ID NO: 329","binding capacity to MDA-MB-231 cells (Geo-MFI, FIG. 2)",good binding capacity
